Measurements taken from US20210107958A1, “GLYPICAN EPITOPES AND USES THEREOF” (MINOMIC INTERNATIONAL LTD., priority 2015, published 2021).

Test system: cells in the urine of prostate cancer patients
Assay: MIL38 indirect immunofluorescence assay (IFA) on cells from patient urine
Format: cell-based, human
[1] = 125 urine samples: 47 healthy, 37 BPH, 41 prostate cancers

B1: MIL38-AM4: Murine anti human glypican 1 monoclonal antibody produced by hybridoma cells deposited at Cellbank Australia under accession number CBA20140026 (antibody)
heavy: QIQLVQSGPELKKPGETVKISCKASGYAFTDYSMNWVKQAPGKGLRWMGWINTETGEPTYTDDFKGRFAFSLETSASTAFLQINNLRNEDTATYFCARHYDYGGFPYWGQGTLVTVSAAKTTPPSVYPLAPGSAAQTNSMVTLGCLVKGYFPEPVTVTWNSGSLSSGVHTFPAVLQSDLYTLSSSVTVPSSTWPSETVTCNVAHPASSTKVDKKIVPRDCGCKPCICTVPEVSSVFIFPPKPKDVLTITLTPKVTCVVVDISKDDPEVQFSWFVDDVEVHTAQTQPREEQFNSTFRSVSELPIMHQDWLNGKEFKCRVNSAAFPAPIEKTISKTKGRPKAPQVYTIPPPKEQMAKDKVSLTCMITDFFPEDITVEWQWNGQPAENYKNTQPIMDTDGSYFVYSKLNVQKSNWEAGNTFTCSVLHEGLHNHHTEKSLSHSPGK
light: DIQMTQSPASLSASVGETVTITCRASGNVHNYLAWYQQKQGKSPQLLVYTAKTLADGVPSRFSGSGSGTQYSLKINSLQPEDFGTYYCQHFWSNPWTFGGGTKLEIKRADAAPTVSIFPPSSEQLTSGGASVVCFLNNFYPKDINVKWKIDGSERQNGVLNSWTDQDSKDSTYSMSSTLTLTKDEYERHNSYTCEATHKTSTSPIVKSFNRNEC
sensitivity in identifying prostate cancers within the cohort [1]: 71%
specificity in identifying prostate cancers within the cohort [1]: 73%
sensitivity in identifying prostate cancers compared to BPH patients (BPH only): 71%
specificity in identifying prostate cancers compared to BPH patients (BPH only): 76%
